This note sets out measurements from PubChem BioAssay AID2685 (National Center for Advancing Translational Sciences (NCATS), 2010).

The nature of the assay: qHTS Assay for Lipid Storage Modulators in Drosophila S3 Cells.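 For cell number change: cells counted by Cell Tracker Red CMTPX staining in the red channel.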 The settings on record: BODIPY lipid droplet fluorescence, 18-24 h; for cell number change: measured here: cell count max response, cells fed with added oleic acid. An outline of the steps: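 Drosophila S3 cells got compounds at several concentrations plus oleic acid (400 uM solution). Laser-scanning cytometry with 488 nm excitation read lipid droplets at 500-530 nm and cells at 575-640 nm. Percent activity was relative to 20 uM Triacsin C.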
(In general: In qHTS, concentration-response curves come from the screen itself.)

Where [1] appears, read: measured here: cell number channel AC50, cells fed with added oleic acid.
The mark [2] stands for this setting: measured here: lipid fluorescence (Fed channel) AC50, cells fed with added oleic acid.

The list shows a part of the results. Shown are side measurements of this screen, not its main read-out; they come without a call. The list favours compounds with an active or inconclusive main result. Words in brackets tell the shape of the fitted curve; partial curves, single points and poor fits give uncertain potencies.

For the molecule `COc1ccc(OC)c(C(c2nnnn2Cc2ccco2)N2CCN(C)CC2)c1` (centres undefined), the cell number change was 17.2%. Under setting [1], the AC50 is 0.00411 µM [rising, full curve, poor fit]. For the same molecule, the AC50 under setting [2] was 0.0058 µM [rising, full curve, poor fit].

As for `CCCCn1c(N)c(N(CCOC)C(=O)CCc2ccc(OC)cc2)c(=O)[nH]c1=O`, the cell number change was -0.89%. Also, the AC50 under setting [1] was 6.51 µM [rising, single point].

Take `CC(=O)OC(C)(C)C1Cc2cc3ccc(=O)oc3cc2O1` (centres undefined): the cell number change came to 2.84%. The AC50 under setting [1] was 1.64 µM [rising, partial curve].

As for `O=C1Nc2ccccc2/C1=C\c1cccn1-c1ccc(OC(F)(F)F)cc1`, the cell number change was -45.9%. The AC50 under setting [1] was 0.0146 µM [falling, full curve, poor fit]. Besides, under setting [2], the concentration at half-maximal activity (AC50) is 16.4 µM [falling, partial curve].

As for `COc1ccc(C(=O)N2CCN(C(C)=O)CC2)cc1S(=O)(=O)N1CCOCC1`, the cell number change is -26.2%. Further, under setting [1], the AC50 is 0.517 µM [falling, full curve, poor fit].

As for `COc1ccccc1C(=O)NCC(=O)NC(C)CCc1ccccc1` (centres undefined), the cell number change came out at 15.7%.

For the molecule `O=S1(=O)CCC(NC(=S)N2CCCCC2)C1` (centres undefined), the cell number change is -6.03%. Further, under setting [2], the AC50 is 32.6 µM [falling, single point].

Consider `O=C(O)c1cccc(NC(=O)c2ccc3c(c2)C(=O)N(CC2CCCO2)C3=O)c1` (centres undefined), for which the cell number change was -30.2%. For the same molecule, the AC50 under setting [1] is 0.092 µM [falling, full curve]. Moreover, under setting [2], the AC50 was 1.03 µM [falling, full curve, poor fit].

In the case of `Cc1ccnc(NC(=O)CCC2CCCCC2)c1`, the AC50 under setting [2] is 6.51 µM [falling, single point].

As for `O=S(=O)(c1ccccc1)N1CCN(C(=S)Nc2ccc(F)cc2)CC1`, the cell number change amounted to 37.9%. Further, the half-maximal activity concentration (AC50) under setting [1] was 16.4 µM [rising, single point]. For the same molecule, the AC50 under setting [2] is 6.51 µM [falling, partial curve, poor fit].

Turning to `C=CCNCCOCCOc1ccc(C)cc1[N+](=O)[O-]`, the cell number change came out at 10.9%.

For the molecule `O=C(O)c1nc(NCCc2ccccc2)ncc1Cl`, the AC50 is, setting by setting: under setting [1], 0.103 µM [rising, full curve, poor fit]; under setting [2], 1.03 µM [rising, full curve, poor fit].

Take `COc1ccc(CCNC(=O)c2ccc3c(=O)n4c(nc3c2)CCC4)cc1OC`: the cell number change was -17%. Moreover, the AC50 under setting [2] is 7.31 µM [falling, single point].

As to `CC(Oc1ccccc1)C(=O)Nc1nnc(S(=O)(=O)N(C)c2ccccc2)s1` (centres undefined), the cell number change is 4.29%. Also, the AC50 under setting [2] is 32.6 µM [falling, single point].

As to `CCOC(=O)NC(NCCc1ccccc1)(C(F)(F)F)C(F)(F)F`, the cell number change is -22.7%.

With `S=C(c1ccc(-c2cccc(Cl)c2)o1)N1CCOCC1`, the cell number change is -8.62%.

`CN(C)c1c(-c2ccccc2)cc(-c2ccccc2)[nH]c1=O`: the cell number change came to 6.21%. The AC50 under setting [2] was 7.31 µM [rising, partial curve].

Turning to `CCC(C)[C@H](NC(=O)NCc1cccs1)C(=O)O` (some centres undefined), the cell number change turned out to be 6.12%. The AC50 under setting [2] was 0.731 µM [falling, full curve, poor fit].

In the case of `O=C(Nc1nc(-c2ccccn2)cs1)c1cc2ccccc2o1`, the cell number change was determined as 10.1%.

With `CCCCCC(C)NC(=S)NC(=O)c1cc(S(=O)(=O)N2CCOCC2)ccc1C` (centres undefined), the cell number change was -3.13%. Besides, the AC50 under setting [2] is 0.82 µM [falling, full curve, poor fit].

For `O=C(O)c1ccccc1C(=O)Nc1ccc(-c2csc(-c3ccccc3)n2)cc1`, the concentration at half-maximal activity (AC50) under setting [2] was 2.06 µM [rising, partial curve].

Regarding `Nc1c(N(CCC2=CCCCC2)C(=O)Cc2ccc(F)cc2)c(=O)[nH]c(=O)n1Cc1ccccc1`, the cell number change was 129%. For the same molecule, the AC50 under setting [1] was 18.4 µM [rising, single point].

As for `COc1ccc(Cl)cc1NC(=O)CSc1nnc(COc2ccccc2)n1N`, the cell number change is -42.9%. The AC50 under setting [1] is 2.31 µM [rising, partial curve]. Also, the AC50 under setting [2] was 2.59 µM [rising, partial curve].

As to `Cc1cc(NC(=O)c2cc(-c3cccc(OCC(C)C)c3)nc3ccccc23)no1`, the cell number change was determined as 124%. Moreover, the AC50 under setting [1] was 20.6 µM [rising, partial curve].

In the case of `Cn1nnnc1NCc1c(F)cccc1Cl`, the cell number change is -0.397%. Also, the AC50 under setting [2] is 16.4 µM [falling, single point].

With `CC(=O)c1ccc(Oc2ncnc(N)c2[N+](=O)[O-])cc1`, the cell number change is -19.1%. Under setting [2], the AC50 was 3.26 µM [falling, full curve].

As for `CCN(CC(=O)NC1CCS(=O)(=O)C1)S(=O)(=O)c1ccc(C)cc1C` (centres undefined), the cell number change is -4.91%. For the same molecule, the AC50 under setting [2] is 29.1 µM [rising, single point].

As to `CCN(CC)S(=O)(=O)c1ccc(N/N=C(\C)c2ccc(OC)cc2O)nc1`, the cell number change was determined as 9.32%. Further, the AC50 under setting [2] was 6.51 µM [rising, single point].

With `Cc1cccc(Cc2cnc(N3C(=N)SC(c4ccccc4)C3=O)s2)c1` (centres undefined), the AC50 under setting [2] is 2.91 µM [falling, full curve].

For `O=C(/C=C/c1cccs1)NC1CC1`, the cell number change amounted to 0.122%. In addition, the AC50 under setting [1] was 0.00461 µM [falling, full curve, poor fit]. Besides, the AC50 under setting [2] is 23.1 µM [falling, partial curve, poor fit].

For `O=C(Nc1nc(-c2ccccn2)cs1)C1CC(=O)N(c2ccc3c(c2)OCCO3)C1` (centres undefined), the cell number change was found to be 66.7%. For the same molecule, under setting [1], the AC50 was 29.1 µM [rising, single point]. Under setting [2], the AC50 is 0.206 µM [rising, full curve, poor fit].

With `Cc1cc(Cl)ccc1OCC(=O)NCC(c1cccs1)N1CCOCC1` (centres undefined), the cell number change is 40.4%. The AC50 under setting [1] is 7.31 µM [rising, partial curve, poor fit]. For the same molecule, the AC50 under setting [2] was 4.61 µM [rising, full curve, poor fit].

In the case of `O=S(=O)(NCCc1ccc2c(c1)OCCO2)c1cccs1`, the cell number change was -46.8%. Under setting [1], the AC50 was 16.4 µM [falling, partial curve, poor fit].

For the molecule `O=C(O)c1cccc(NS(=O)(=O)/C=C/c2ccccc2)c1`, the cell number change amounted to 17.1%.

Regarding `COc1ccc(N2C(=O)CCC(C(C)=O)=C2C)cc1`, the cell number change stood at 4.68%.

For `COC(=O)c1ccc[n+](CC(=O)c2ccc(Br)cc2)c1`, the cell number change was -39%. Also, the AC50 under setting [1] is 32.6 µM [falling, single point]. Further, under setting [2], the AC50 is 32.6 µM [falling, single point].

For `COc1ccc(CCC(=O)O)cc1OC`, the cell number change was -21.2%.

For the molecule `COc1ccc(O)c(/C=N/NC(=S)Nc2cccc(S(=O)(=O)N(C)C)c2)c1`, the cell number change stood at 50%. Moreover, the AC50 under setting [1] was 23.1 µM [rising, single point]. For the same molecule, the AC50 under setting [2] is 29.1 µM [falling, single point].

On to `COc1cc(C(=O)Nc2cc(Cl)ccc2-n2cncn2)ccc1OC(F)F`, for which, under setting [1], the AC50 is 0.461 µM [rising, single point].

Regarding `Cc1ccc([N+](=O)[O-])cc1-c1[nH]c(-c2ccc(O)c(O)c2)nc1-c1ccccc1`, the cell number change is -11.2%.

As to `CCC1(C)Cc2ccccc2-c2nc(NN)[nH]c(=O)c21` (centres undefined), the cell number change was -33.3%. Also, the AC50 under setting [1] was 1.16 µM [falling, full curve].

For `CCOC(=O)c1c(NC(=O)C2C3C=CC(C3)C2C(=O)O)sc2c1CC(C)(C)OC2` (centres undefined), the cell number change is -14%. Further, under setting [2], the AC50 was 23.1 µM [falling, single point].

In the case of `CC(c1ccccc1)c1nnc(NC(=O)Nc2ccccc2F)s1` (centres undefined), the AC50 under setting [2] was 1.3 µM [falling, full curve].

Turning to `COc1cc2c3c(c1)C1(C(=O)N3C(C)(C)C=C2C)C(C#N)=C(N)Oc2cc(O)ccc21` (centres undefined), the cell number change is -13.8%.

Take `CC(C(=O)O)c1ccc2c(c1)[nH]c1ccc(Cl)cc12` (centres undefined): the cell number change amounted to 20.7%. Besides, the AC50 under setting [2] was 14.6 µM [rising, partial curve].

As to `O=C(CN1C(=O)c2ccccc2C1=O)N1CCN(C(=O)c2ccco2)CC1`, the cell number change was -2.21%.

`CN(C)CCNC(=O)C(=O)Nc1ccc2c(c1)N(S(=O)(=O)c1cccs1)CCC2`: the cell number change came out at 15.4%.

`Cc1cc(NC(=O)c2cccc(COc3ccc(Br)cc3)c2)no1`: the cell number change was -0.112%.

As to `O=C(/C=C/c1ccncc1)c1ccc(NC(=O)c2ccccc2F)cc1`, the cell number change was -50.5%. The AC50 under setting [1] is 29.1 µM [falling, single point]. In addition, the AC50 under setting [2] was 2.91 µM [rising, single point].

`O=C(COC(=O)Cc1ccccc1F)NCCc1ccccc1`: the cell number change amounted to 14.3%. In addition, under setting [2], the AC50 is 2.31 µM [rising, partial curve].

Take `CC(=O)Nc1nc2ccccc2n1CCOc1ccccc1Cl`: the AC50 runs as follows: under setting [1], 0.461 µM [rising, partial curve, poor fit]; under setting [2], 0.411 µM [rising, partial curve, poor fit].

On to `Fc1cccc(NCCc2c[nH]c3ccccc23)n1`, for which the cell number change is -37.4%. Also, the AC50 under setting [1] is 7.31 µM [falling, partial curve]. The AC50 under setting [2] was 29.1 µM [falling, single point].

With `O=C(C(NS(=O)(=O)c1cccs1)c1ccccc1)N1CCN(c2ccccc2F)CC1` (centres undefined), the cell number change was 21.2%. The half-maximal activity concentration (AC50) under setting [2] was 0.146 µM [rising, full curve].

`Cc1ccc(C)c(Cn2nnc(C(=O)Nc3ccc4c(c3)OCCO4)c2N)c1`: the cell number change was -8.12%. Also, the AC50 under setting [2] was 18.4 µM [falling, partial curve].

On to `COc1ccc(C(=O)NC2CCCc3c2cnn3-c2ccccc2F)cc1OC` (centres undefined), for which the AC50 was 2.06 µM [falling, partial curve] under setting [1] and 3.26 µM [falling, partial curve] under setting [2].

On to `O=S(=O)(NCC1CCCO1)c1ccccc1` (centres undefined), for which the cell number change came to 9.26%. In addition, the half-maximal activity concentration (AC50) under setting [2] was 29.1 µM [rising, single point].

With `COc1ccc(Cl)cc1NC(=O)CN(C)C(=O)CSc1ccc2c(c1)OCCO2`, the cell number change was -34.9%. Moreover, the half-maximal activity concentration (AC50) under setting [1] was 16.4 µM [falling, partial curve]. In addition, the AC50 under setting [2] was 0.651 µM [falling, full curve, poor fit].

As to `COCCn1c(SCC(=O)NNC(=O)Cc2ccccc2)nc2ccccc2c1=O`, the cell number change is 1.34%. For the same molecule, the half-maximal activity concentration (AC50) under setting [1] was 0.231 µM [rising, partial curve, poor fit].

As to `O=C(O)c1ccc(NS(=O)(=O)c2ccc(Cl)cc2)cc1`, the cell number change was -21.1%. In addition, the AC50 under setting [1] is 1.03 µM [falling, full curve, poor fit].

`CCC(C)C(=O)Nc1nnc(SCC(=O)Nc2ccccc2F)s1` (centres undefined): the AC50 under setting [1] was 3.26 µM [rising, single point].

As a reminder, the AC50 is the midpoint of the concentration-response curve, whichever way the signal moves.
